Measured values taken from paper PMC9177810, “Allosteric interactions prime androgen receptor dimerization and activation”.

Legend:
[1] = molecular target: AR deltaNTD R761 mutant (mouse) (UniProt P19091); assay: fluorescence polarization; settings: DHT, text says abrogated, 150 mM NaCl, 40 mM Tris pH 8.0, 1 mM TCEP, 20 uM DHT, 10% glycerol, 0.01% NP40, on ice, FP 100 nM DNA, 0-4 uM protein, recombinant protein, protein details: Smt3 fusion, removed by Ulp1
[2] = molecular target: AR deltaNTD N759 mutant (mouse) (UniProt P19091); assay: fluorescence polarization; settings: DHT, text says abrogated, 150 mM NaCl, 40 mM Tris pH 8.0, 1 mM TCEP, 20 uM DHT, 10% glycerol, 0.01% NP40, on ice, FP 100 nM DNA, 0-4 uM protein, recombinant protein, protein details: Smt3 fusion, removed by Ulp1
[3] = molecular target: AR deltaNTD N759/R761 double mutant (mouse) (UniProt P19091); assay: fluorescence polarization; settings: DHT, text says abrogated, 150 mM NaCl, 40 mM Tris pH 8.0, 1 mM TCEP, 20 uM DHT, 10% glycerol, 0.01% NP40, on ice, FP 100 nM DNA, 0-4 uM protein, recombinant protein, protein details: Smt3 fusion, removed by Ulp1
AR DBD (mouse) [4] = molecular target: T1, AR DBD (mouse) (UniProt P19091); assay: EMSA; settings: no supershifted species; 150 mM NaCl, 40 mM Tris pH 8.0, 1 mM TCEP, 20 uM DHT, 10% glycerol, 0.01% NP40, on ice; EMSA 50 nM DNA, 250 nM protein; recombinant protein; protein details: Smt3 fusion, removed by Ulp1; label: 5' fluorescein (FP), unlabeled (EMSA)
T1 sequence (looked up, limits assumed): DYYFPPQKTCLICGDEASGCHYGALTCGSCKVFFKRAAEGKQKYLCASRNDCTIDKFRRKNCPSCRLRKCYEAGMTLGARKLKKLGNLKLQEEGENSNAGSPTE

[5] = molecular target: AR deltaNTD K861 mutant (mouse) (UniProt P19091); assay: fluorescence polarization; settings: DHT, text says abrogated, but gel shifts of most mutants resemble DBD; 150 mM NaCl, 40 mM Tris pH 8.0, 1 mM TCEP, 20 uM DHT, 10% glycerol, 0.01% NP40, on ice; FP 100 nM DNA, 0-4 uM protein; recombinant protein; protein details: Smt3 fusion, removed by Ulp1; label: 5' fluorescein (FP), unlabeled (EMSA)
[6] = molecular target: AR deltaNTD R854 mutant (mouse) (UniProt P19091); assay: fluorescence polarization; settings: DHT, text says abrogated, but gel shifts of most mutants resemble DBD; 150 mM NaCl, 40 mM Tris pH 8.0, 1 mM TCEP, 20 uM DHT, 10% glycerol, 0.01% NP40, on ice; FP 100 nM DNA, 0-4 uM protein; recombinant protein; protein details: Smt3 fusion, removed by Ulp1; label: 5' fluorescein (FP), unlabeled (EMSA)
[7] = molecular target: AR deltaNTD KRK 845-847 mutant (mouse) (UniProt P19091); assay: fluorescence polarization; settings: DHT, text says abrogated, but gel shifts of most mutants resemble DBD; 150 mM NaCl, 40 mM Tris pH 8.0, 1 mM TCEP, 20 uM DHT, 10% glycerol, 0.01% NP40, on ice; FP 100 nM DNA, 0-4 uM protein; recombinant protein; protein details: Smt3 fusion, removed by Ulp1; label: 5' fluorescein (FP), unlabeled (EMSA)
AR DBD (mouse) [8] = molecular target: T1, AR DBD (mouse); assay: fluorescence polarization; settings: 150 mM NaCl, 40 mM Tris pH 8.0, 1 mM TCEP, 20 uM DHT, 10% glycerol, 0.01% NP40, on ice; FP 100 nM DNA, 0-4 uM protein; recombinant protein; protein details: Smt3 fusion, removed by Ulp1; label: 5' fluorescein (FP), unlabeled (EMSA)
[9] = but gel shifts of most mutants resemble DBD, label: 5' fluorescein (FP), unlabeled (EMSA)

AGACCTAGCGTGGCCAGAACATCATTAAGCCCGGTGCGATCCAG (double strand) [ARE-Half-Site/Scr]
binding result ([1]; label: 5' fluorescein): binds more weakly | binding result ([2]; label: 5' fluorescein): binds more weakly | binding result ([3]; label: 5' fluorescein): binds more weakly

TACCTAGCGTGGCCAGAACATCATGTTCTCCGGTGCGATCCAG (double strand) [ARE/Scr (ARE43)]
binding result (AR DBD (mouse) [4]): binds more weakly | binding result [5]: binds more weakly | binding result [1, 9]: binds more weakly | binding result [6]: binds more weakly | binding result [7]: binds more weakly | binding result [2, 9]: binds more weakly | binding result [3, 9]: binds more weakly | binding signal (fold weaker than WT AR) (AR DBD (mouse) [8]): > 5

For some assays here: Weaker means in comparison with the reference protein, sequence or condition of that experiment. For some assays here: Protein sequences can lack the tags named with them. For some assays here: Construct, isoform or probe ends are uncertain for at least one entry. For some assays here: At least one verdict rests on a figure or table, not on a statement of the authors. For some assays here: The direction of at least one scale is not stated here.
